PubChem BioAssay AID1671195 | Yale University, 2021
The whole screen tested about 22,000 reagents; this is a random part of them. About 1,510 of all reagents (6.9%) were called active. 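Active includes knockdowns raising or lowering LDL uptake; positive z-scores mean more uptake, negative mean less.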 Entries without a mark were called inactive. No sequences are given here.

Purpose: 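Genes whose knockdown alters LDL uptake in liver cancer cells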 (primary screen)
Cell system: human Huh7 hepatoma cells
Reagents: siRNA pool against human genes, 18 nM
Timing: about 2 to 2.5 days of knockdown, then 8 h LDL uptake
Challenge: DiI-labelled LDL at 30 µg/ml for 8 h, in lipoprotein-deficient serum medium
Measured: 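Fluorescent LDL signal imaged in cells, scaled to the plate median, robust z-score for each replicate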
Reading the numbers: robust z-score: higher = more LDL uptake after knockdown
Rule for the call: 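Active when two or more replicates show a robust z-score above 2 or below -2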

What did the screen give for LOC442377 (retired record)?
robust z-score, replicate 1: -1.14; robust z-score, replicate 2: -1.2; robust z-score, replicate 3: -0.895

For PSMC3, what was measured?
robust z-score, replicate 1: -0.923; robust z-score, replicate 2: -0.971; robust z-score, replicate 3: -1.55

What is on record for FLRT2?
robust z-score, replicate 1: -0.426; robust z-score, replicate 2: -2.18; robust z-score, replicate 3: -1.54

How did the screen score DBH?
robust z-score, replicate 1: 0.375; robust z-score, replicate 2: 1.04; robust z-score, replicate 3: 0.76

What is on record for SCAMP3?
robust z-score, replicate 1: -0.218; robust z-score, replicate 2: -0.326; robust z-score, replicate 3: -0.475

For YIPF4, how do the results read?
robust z-score, replicate 1: -0.462; robust z-score, replicate 2: -0.683; robust z-score, replicate 3: 0.323

With SLC25A28, how do the results read?
robust z-score, replicate 1: 0.964; robust z-score, replicate 2: 0.522; robust z-score, replicate 3: 0.956

How did the screen score ARSK?
robust z-score, replicate 1: -0.726; robust z-score, replicate 2: -0.748; robust z-score, replicate 3: -0.787

Which result is listed for SIK1?
robust z-score, replicate 1: 1.4; robust z-score, replicate 2: 1.55; robust z-score, replicate 3: 1.31

With ECI1, how do the results read?
robust z-score, replicate 1: 0.185; robust z-score, replicate 2: -0.647; robust z-score, replicate 3: 0.317

With SOX30, what was measured?
robust z-score, replicate 1: 3.56 (active); robust z-score, replicate 2: 4.11; robust z-score, replicate 3: 3.81

How did the screen score ETS1?
robust z-score, replicate 1: 0.405; robust z-score, replicate 2: -0.345; robust z-score, replicate 3: 2

With MRPL24, what was measured?
robust z-score, replicate 1: -0.221; robust z-score, replicate 2: -0.556; robust z-score, replicate 3: 0.0494

What did the screen give for FLT4?
robust z-score, replicate 1: -0.661; robust z-score, replicate 2: -1.18; robust z-score, replicate 3: -0.76

How did the screen score CDK5R2?
robust z-score, replicate 1: -0.181; robust z-score, replicate 2: 0.0434; robust z-score, replicate 3: 2.37

With LYPD6B, what was measured?
robust z-score, replicate 1: -0.99; robust z-score, replicate 2: -1.44; robust z-score, replicate 3: -1.8

With GRID2, what does the deposit list?
robust z-score, replicate 1: -1.51; robust z-score, replicate 2: -1.32; robust z-score, replicate 3: -1.44

What is on record for NOSTRIN?
robust z-score, replicate 1: -0.639; robust z-score, replicate 2: 1.12; robust z-score, replicate 3: 0.662

For ADA, what does the deposit list?
robust z-score, replicate 1: 0.811; robust z-score, replicate 2: 0.428; robust z-score, replicate 3: 0.662

With SLC10A1, what was measured?
robust z-score, replicate 1: -0.949; robust z-score, replicate 2: -0.465; robust z-score, replicate 3: -0.937

For MAPT, what does the deposit list?
robust z-score, replicate 1: 2.84; robust z-score, replicate 2: 1.54; robust z-score, replicate 3: 0.722

With BIN3, how do the results read?
robust z-score, replicate 1: 4.84 (active); robust z-score, replicate 2: 5.02; robust z-score, replicate 3: 3.62

With ANKS4B, what does the deposit list?
robust z-score, replicate 1: -0.483; robust z-score, replicate 2: -0.257; robust z-score, replicate 3: -0.26

Which result is listed for MAOB?
robust z-score, replicate 1: 0.668; robust z-score, replicate 2: 0.598; robust z-score, replicate 3: 0.577

Ordered by “robust z-score, replicate 1” (lowest first): some entries from above
ARSK | robust z-score, replicate 1 = -0.726; robust z-score, replicate 2 = -0.748; robust z-score, replicate 3 = -0.787
SLC25A28 | robust z-score, replicate 1 = 0.964; robust z-score, replicate 2 = 0.522; robust z-score, replicate 3 = 0.956
SIK1 | robust z-score, replicate 1 = 1.4; robust z-score, replicate 2 = 1.55; robust z-score, replicate 3 = 1.31
